According to patent publication US9988687B2, “Companion diagnostics for cancer and screening methods to identify companion diagnostics for cancer based on splicing variants” (THE GEORGE WASHINGTON UNIVERISTY, priority 2014, dated 2018):
“Also recorded” adds a separate entry of the source. For at least one compound, name, drawing or mass did not settle the structure.

Tests used:
[1] = tested on: PC-3 cells expressing PIK3CD L variant; test: Proliferation by BrdU labeling, PC-3 cells expressing L variant; type: cell-based, human; conditions: FIG. 7D
[2] = tested on: PC-3 cells stably expressing PIK3CD-L; test: Subcutaneous tumor xenograft of PC-3 cells expressing PIK3CD-L; type: in vivo, NOD-SCID mice; conditions: for Tumor growth / tumorigenesis: PC-3 PIK3CD-L subcutaneous tumors in NOD-SCID mice, time course, FIG. 8A
[3] = tested on: PC-3 cells stably expressing PIK3CD-S; test: Subcutaneous tumor xenograft of PC-3 cells expressing PIK3CD-S; type: in vivo, NOD-SCID mice
[4] = tested on: PC-3 cells expressing PIK3CD-S variant; test: Proliferation by BrdU labeling, PC-3 cells expressing S variant; type: cell-based, human; conditions: FIG. 7D
[5] = tested on: VCaP cells expressing PIK3CD S variant; test: Relative proliferation, VCaP cells expressing S variant; type: cell-based, human; conditions: FIG. 7C
[6] = tested on: VCaP cells expressing PIK3CD L variant; test: Relative proliferation, VCaP cells expressing L variant; type: cell-based, human; conditions: FIG. 7C

CC[C@H](Nc1ncnc2[nH]cnc12)c1nc2cccc(F)c2c(=O)n1-c1ccccc1 [CAL101]
Proliferation (BrdU incorporation) [1]: dose dependent reduction in proliferation
Proliferation (BrdU incorporation) ([1]; listed as CAL 101): reduced cancerous proliferation
Tumor growth / tumorigenesis [2]: reduced tumor growth throughout the experiment
Tumor growth / tumorigenesis ([2]; listed as CAL-101): reduced tumorigenesis
Tumor weight versus vehicle ([2]; PC-3 PIK3CD-L tumors, at the end of 16 days, FIG. 8B, n=5): significant tumor weight reduction
Tumor growth / tumorigenesis ([3]; PC-3 PIK3CD-S subcutaneous tumors in NOD-SCID mice, FIG. 8A): insensitive; also recorded: resistance to CAL-101 inhibition of tumorigenesis
Tumor weight versus vehicle ([3]; PC-3 PIK3CD-S tumors, end of treatment, FIG. 8B, n=5): did not show significant differences
Proliferation (BrdU incorporation) [4]: resistant to CAL 101 treatments, only showing reductions in BrdU incorporation at the highest treatment levels; also recorded: largely resistant
Relative proliferation levels [5]: only the L variant exhibiting dose dependent responses
Relative proliferation levels ([5]; listed as CAL 101): largely resistant
Relative proliferation levels [6]: dose dependent responses
Relative proliferation levels ([6]; listed as CAL 101): reduced cancerous proliferation
